# Measurements reported in PubChem BioAssay AID504764 (Drosophila RNAi Screening Center, 2011)
# Screen: 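Knock-downs that raise or lower a Notch target reporter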 (primary screen)
# System: Drosophila Kc167 cells
# Reagents: long dsRNA against Drosophila genes
# Duration: about 5 days (4 days dsRNA, then 24 h after transfection)
# Conditions: transfection of constitutively active membrane-tethered Notch lacking the extracellular domain, read 24 h later
# Read-out: 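Firefly luciferase from an E(spl)m3 reporter with active Notch, plus control-promoter and uninduced reporter wells for normalisation; unnormalised counts, duplicate wells a and b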
# Reading the numbers: induced reporter light, run 1, well a and induced reporter light, run 1, well b: higher = more light from the Notch target reporter with active Notch; control promoter light, run 1, well a and control promoter light, run 1, well b: higher = more light from the viral control promoter (cell number, transfection, viability); uninduced reporter light, run 1, well a: higher = more light from the Notch target reporter without active Notch
# Hit rule: 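Hit if the duplicate-averaged log2 ratio of induced to control-promoter light gives a plate-wise z beyond ±2, or induced to uninduced beyond ±1.8; weak-control or discordant-duplicate wells dropped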
# Meaning of the calls: active = modifier hit (raised or lowered Notch signal); inactive = not a hit
# The deposit covers about 22,000 reagents; this is a random part of those with a known target gene and a result. Over the whole deposit, 403 (1.9%) are marked active. 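Unnormalised raw counts per well; ratio z-scores behind the hit calls and whether each hit raises or lowers signal are not deposited.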 Names joined by + are all predicted targets of the reagent. No sequences are given here. Not stated in the record: the amount of reagent.
Target gene,amplicon,"induced reporter light, run 1, well a","induced reporter light, run 1, well b","control promoter light, run 1, well a","control promoter light, run 1, well b","uninduced reporter light, run 1, well a",Outcome
CG31661,DRSC00296,1.21e5,1.06e5,1.25e5,95480,8970,inactive
CG7239,DRSC03038,9165,9270,8350,8255,2875,inactive
Kap-alpha3 (karyopherin alpha3),DRSC16976,72585,78015,68720,76695,3220,inactive
CG31301,DRSC22164,,,,,,inactive
CG2444,DRSC19846,1.11e5,1.14e5,2.22e5,2.04e5,8685,inactive
CG12521,DRSC09893,1.19e5,1.33e5,2.33e5,1.41e5,7045,inactive
ebo (ellipsoid body open),DRSC18787,49450,59715,53800,66620,3570,inactive
CG7156,DRSC16207,1.52e5,1.68e5,2.16e5,2.27e5,15980,inactive
LysE (Lysozyme E),DRSC08675,1.05e5,1.33e5,1.86e5,1.77e5,7588,inactive
scaf (scarface),DRSC04849,2.16e5,1.97e5,1.77e5,1.92e5,12205,active
Tsp3A (Tetraspanin 3A),DRSC18656,1.45e5,1.32e5,2.08e5,2.22e5,9035,inactive
Cht6 (Chitinase 6),DRSC18001,1.12e5,1.23e5,2.13e5,2.41e5,9060,inactive
Cht6 (Chitinase 6),DRSC18002,32260,26185,50425,47680,4950,inactive
Cht6 (Chitinase 6),DRSC18253,1.19e5,1.50e5,2.75e5,2.43e5,10745,inactive
CG14966,DRSC08425,69175,1.33e5,1.86e5,1.73e5,8070,inactive
CG10472,DRSC09730,92995,85025,71580,34915,10585,inactive
CG12204,DRSC19442,1.53e5,1.57e5,1.54e5,97480,10585,inactive
CG3008,DRSC00560,1.38e5,1.10e5,1.67e5,1.34e5,8878,inactive
CG30385,DRSC06031,2.50e5,2.20e5,2.66e5,2.70e5,22210,inactive
CG3902,DRSC10387,1.66e5,1.74e5,2.22e5,1.62e5,12095,inactive
TH1,DRSC20289,1.31e5,95760,1.84e5,2.20e5,10730,inactive
Argk1 (Arginine kinase 1),DRSC08959,2.40e5,2.04e5,2.12e5,2.06e5,14745,inactive
Argk1 (Arginine kinase 1),DRSC09668,2.77e5,2.64e5,3.36e5,3.28e5,17482,inactive
Argk1 (Arginine kinase 1),DRSC10460,87725,1.07e5,59990,32140,8688,inactive
CG33502 + CG32857 + CG32500,DRSC20817,2.27e5,2.31e5,4.22e5,3.45e5,20050,inactive
CG33502 + CG32857 + CG32500,DRSC21038,93880,1.02e5,1.27e5,1.41e5,11450,inactive
Ctu2 (Cytosolic thiouridylase subunit 2),DRSC02024,2.00e5,1.98e5,1.73e5,1.92e5,14810,inactive
CG14684,DRSC14907,84475,74955,73470,53235,5925,inactive
lcs (la costa),DRSC20580,67730,92025,91655,1.04e5,9005,inactive
Gabat (gamma-aminobutyric acid transaminase),DRSC10846,1.31e5,75990,1.28e5,1.27e5,9260,inactive
CG17974,DRSC04299,54650,49205,48890,48690,2630,inactive

In a second layout: 4 of the entries above
Cht6 (Chitinase 6) [DRSC18001] — induced reporter light, run 1, well a: 1.12e5; induced reporter light, run 1, well b: 1.23e5; control promoter light, run 1, well a: 2.13e5; control promoter light, run 1, well b: 2.41e5; uninduced reporter light, run 1, well a: 9060; Outcome: inactive
Cht6 (Chitinase 6) [DRSC18002] — induced reporter light, run 1, well a: 32260; induced reporter light, run 1, well b: 26185; control promoter light, run 1, well a: 50425; control promoter light, run 1, well b: 47680; uninduced reporter light, run 1, well a: 4950; Outcome: inactive
Cht6 (Chitinase 6) [DRSC18253] — induced reporter light, run 1, well a: 1.19e5; induced reporter light, run 1, well b: 1.50e5; control promoter light, run 1, well a: 2.75e5; control promoter light, run 1, well b: 2.43e5; uninduced reporter light, run 1, well a: 10745; Outcome: inactive
CG14966 [DRSC08425] — induced reporter light, run 1, well a: 69175; induced reporter light, run 1, well b: 1.33e5; control promoter light, run 1, well a: 1.86e5; control promoter light, run 1, well b: 1.73e5; uninduced reporter light, run 1, well a: 8070; Outcome: inactive

The listing continues.
Target gene,amplicon,"induced reporter light, run 1, well a","induced reporter light, run 1, well b","control promoter light, run 1, well a","control promoter light, run 1, well b","uninduced reporter light, run 1, well a",Outcome
Not11 (CCR4-NOT transcription complex subunit 11),DRSC04204,1.80e5,1.92e5,1.31e5,1.42e5,15015,inactive
RhoGAP54D (Rho GTPase activating protein at 54D),DRSC06990,27170,19785,21825,22610,2985,inactive
CG12607,DRSC08287,1.64e5,3.16e5,2.84e5,2.82e5,8085,inactive
IntS9 (Integrator 9),DRSC10493,1.06e5,1.23e5,56005,70620,12215,inactive
CG11454,DRSC00310,1.47e5,1.68e5,1.85e5,2.20e5,17825,inactive
CG15140,DRSC02440,1.10e5,1.30e5,1.17e5,1.41e5,8555,inactive
CG42570,DRSC09391,1.67e5,2.24e5,2.17e5,2.58e5,16500,inactive
CG17002,DRSC04978,1.68e5,1.93e5,1.50e5,1.62e5,17070,active
CG1773,DRSC06688,1.55e5,1.75e5,1.35e5,1.48e5,13270,inactive
CG32712,DRSC17820,2.01e5,1.77e5,3.20e5,3.09e5,13850,inactive
Npc1a (Niemann-Pick type C-1a),DRSC03378,93330,1.14e5,55995,77260,11460,inactive
CG8508,DRSC16436,1.32e5,1.47e5,90365,93325,9265,inactive
bnb (bangles and beads),DRSC20314,1.38e5,1.01e5,98795,55460,9190,inactive
Patr-1 (Protein associated with topo II related - 1),DRSC14159,44910,40965,25205,22888,4215,inactive
Klp59C (Kinesin-like protein at 59C),DRSC04348,1.97e5,1.88e5,1.90e5,1.80e5,13995,inactive
CG1824,DRSC19796,1.17e5,90445,1.39e5,1.58e5,5970,inactive
jhamt (juvenile hormone acid methyltransferase),DRSC01985,1.38e5,1.51e5,1.37e5,1.49e5,13630,inactive
CG6051,DRSC15956,1.20e5,1.59e5,1.69e5,1.74e5,11715,inactive
dpr8 (defective proboscis extension response 8),DRSC19406,81015,65510,85700,74915,12220,inactive
dpr8 (defective proboscis extension response 8),DRSC19600,74640,70735,1.03e5,84895,11330,inactive
dpr8 (defective proboscis extension response 8),DRSC19938,1.42e5,1.08e5,1.23e5,97835,16160,inactive
dpr8 (defective proboscis extension response 8),DRSC19939,1.10e5,94035,1.37e5,91405,13980,inactive
